This is one part of the list. Repeats are few or missing, and single values can be far off.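 The apoptosis fraction was the count of cleaved-PARP antibody-stained nuclei relative to all DNA-stained nuclei, imaged in 1,536-well plates. Screening doses were set so most cells survived, and baseline and induced cleaved-PARP levels vary greatly across cell lines.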
System: G361
Assay: cleaved PARP positive nuclei fraction relative to DMSO control; melanoma cells; higher = more apoptosis
Settings: library dose: low library concentration; 72 h

SMILES	cleaved PARP positive nuclei fraction [%]
CC1(C)CCC(c2ccc(Cl)cc2)=C(CN2CCN(c3ccc(C(=O)NS(=O)(=O)c4ccc(N[C@H](CCN5CCOCC5)CSc5ccccc5)c(S(=O)(=O)C(F)(F)F)c4)cc3)CC2)C1 + Cc1cn(-c2cc(NC(=O)c3ccc(C)c(Nc4nccc(-c5cccnc5)n4)c3)cc(C(F)(F)F)c2)cn1 [nilotinib] (first compound 0.4 µM, partner dose 0.2 µM)	238
C[C@@H](N)c1ccc(C(=O)Nc2ccnc3[nH]ccc23)cc1 + CCCCCCCCc1ccc(CCC(N)(CO)CO)cc1 [fingolimod] (first compound 0.4 µM, partner dose 2 µM)	133
Cn1cnc2c(F)c(Nc3ccc(Br)cc3Cl)c(C(=O)NOCCO)cc21 [selumetinib] + CCCCCCCCc1ccc(CCC(N)(CO)CO)cc1 [fingolimod] (first compound 0.015 µM, partner dose 2 µM)	99.9
C[C@]1(O)C[C@@H](c2nc(-c3ccc4ccc(-c5ccccc5)nc4c3)c3c(N)nccn32)C1 + Nc1ccn([C@@H]2O[C@H](CO)[C@@H](O)C2(F)F)c(=O)n1 [gemcitabine] (first compound 0.4 µM, partner dose 0.0004 µM)	206
CCCCCCCCc1ccc(CCC(N)(CO)CO)cc1 [fingolimod] + Nc1nc(F)nc2c1ncn2[C@@H]1O[C@H](CO)[C@@H](O)[C@@H]1O [fludarabine] (first compound 2 µM, partner dose 0.2 µM)	115

— the supplement of paper PMC4604168 (melanoma cell lines)
